Experimental data from the supplement of paper PMC3334620.
In all, about 33,000 sequences were measured (“E-score (-0.5 to 0.5)”: median about -0.0034, highest 2% from about 0.25 on). Some of the results follow.

The sequences below were run against T1, Yap3 (UniProt P38749) (assay: PBM E-score (8-mer binding enrichment) (E-score (-0.5 to 0.5)); higher = stronger / more preferred TF binding). Details: protein concentration: 100 nM; construct: GST-full length.
T1 sequence: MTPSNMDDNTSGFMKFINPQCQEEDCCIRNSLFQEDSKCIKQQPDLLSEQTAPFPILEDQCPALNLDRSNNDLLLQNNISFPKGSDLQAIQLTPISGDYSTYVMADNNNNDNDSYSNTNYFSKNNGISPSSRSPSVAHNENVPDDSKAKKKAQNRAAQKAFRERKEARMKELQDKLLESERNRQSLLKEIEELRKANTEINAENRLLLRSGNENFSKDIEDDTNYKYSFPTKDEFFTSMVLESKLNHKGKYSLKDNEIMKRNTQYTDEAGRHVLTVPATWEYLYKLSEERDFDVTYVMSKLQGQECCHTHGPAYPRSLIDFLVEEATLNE
Experimental: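 Universal 'all 10-mer' protein binding microarrays (Agilent AMADID 015681) probed with GST-tagged S. cerevisiae TFs (full-length or DBD) made by in vitro transcription/translation (PURExpress), about 100-200 nM. Bound TF was detected with fluorescent anti-GST. Each ungapped 8-mer (which stands for itself and its reverse complement) is scored by the PBM enrichment score (E-score), a modified Wilcoxon-Mann-Whitney statistic from -0.5 to +0.5, computed with the Universal PBM Analysis Suite. Scale: above 0.35 generally sequence-specific binding.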

Sequence | PBM E-score
ATGCGGGG | -0.197
CTCATTTA | 0.133
CAATATTC | 0.126
AACGGATT | 0.233
CAGGATAA | 0.173
AGGTCCAA | -0.204
AGCAATCC | -0.213
ACCGATAG | 0.00043
CCGGACCG | -0.254
TACAAAGA | 0.139
GCTTGAAC | 0.17
CATCAGAG | -0.0207
CCGGCGGA | -0.0725
TACTGTGA | 0.23
CTCGGGAC | -0.156
ACGGTGCA | -0.116
ACTGGGCG | -0.225
CAAGTGCC | -0.122
ACGTTGTA | -0.0225
GGGACACC | -0.243
GGTAATGA | 0.13
GGCTGTAC | -0.209

Sequence | PBM E-score
ATCGACCC | 0.0444
GGGCTGCA | -0.195
AAGGATGG | -0.0686
AAATGTTA | 0.123
CAAATTAG | 0.122
GGGTGCAC | -0.135
CCAGATCA | 0.179
CCTGGAAC | -0.0541
ATAATACC | 0.226
GTCTCTCA | -0.0895
GATGCGGA | -0.197
CGTCCGCC | -0.213
CCTGGCCA | -0.00442
GCTAGAAC | -0.0566
ATCGTCGA | -0.0348
AGGTCAAC | -0.0927
TAATAAAA | 0.324
GCCAAAAC | -0.0294
CACACCCG | -0.107
CTCAGCCA | -0.0977
ACGATCCT | 0.0248
AACGCTAT | 0.102

Sequence | PBM E-score
CAGGGCCA | -0.297
CTGATTTC | -0.0175
TAGTCGCA | -0.0688
ACTGTCCC | 0.11
AAGAGGGC | -0.0988
CGAATGCG | 0.112
ACAGGACC | -0.0617
CCTCCCGC | -0.183
CGAGAACG | -0.0191
ATGTCGCG | 0.0543
AGGGATCC | -0.28
AGCACGAG | -0.0257
GGTATCAA | 0.0338
GAAGAACC | -0.0243
AATGAATT | 0.214
ACTTGTTC | 0.0206
GCGAGACC | -0.134
GCTGACCA | 0.026
AGTCTGCG | -0.25
GAACGGGC | -0.164
CCTCCTCG | -0.192
GAAGCGTC | -0.136

Sequence | PBM E-score
CAGGTACC | -0.141
AGACCGAT | -0.131
AGCATCCC | -0.174
CACATGGG | -0.0299
GTTGGGGA | -0.168
AGTGGGTA | 0.0821
TCTCCGCA | -0.189
TATGGGAA | 0.0612
AAAAACGA | 0.256
ACTACAAC | 0.182
CACGCAGA | -0.0244
GTATGAGA | 0.158
CATGCGGC | 0.00023
ATAGCAAA | 0.0477
GCAAGCCC | -0.0469
CCAAGCGA | 0.0232
AAGCGCGG | -0.00666
ATGAGGAA | 0.122
CAAGTTGG | 0.106
ATCCCATA | -0.106

Rewritten in markdown: part of the list above

| Sequence | PBM E-score |
| --- | --- |
| TCTCCGCA | -0.189 |
| TATGGGAA | 0.0612 |
| AAAAACGA | 0.256 |
| ACTACAAC | 0.182 |
